Screen size: about 300,000 compounds; about 5,400 (1.8%) were called active. Inconclusive means that the source gave no clear call. Such entries were picked first, then a sample of the others. The call rests on the fitted dose curve; tested in HEK293 cells. A potency beside an inconclusive call is a rough fit, not a confirmed value.
Test: qHTS for inhibitors of binding or entry into cells for Marburg Virus
Details: Marburg virus pseudotyped entry inhibition, cell reporter; activity change, negative = inhibition: at 37.8 µM (top of the series) unless noted
On the % scale 0 is the no-effect control and ±100 the full control effect; potency means the concentration at half of the fitted maximal effect.

Compound	Potency	activity change, negative = inhibition
COc1ccc(NC(=O)C(=O)NNC(=O)c2cccs2)cc1	inconclusive: 14.1 µM [activator, single point]	
CC(=O)c1sc2nsc(SCCN3CCCCC3)c2c1N	inconclusive: 2.82 µM [inhibitor, partial curve, poor fit]	
Cc1cc(C)c2[nH]c(C(=O)Nc3ccc(F)cc3Br)cc2c1		inactive: 6.58%
CCCCOc1ccc(CCN)cc1Cl	inconclusive: 22.4 µM [activator, partial curve, poor fit]	
CC1(C)C(=O)OC(c2cc(Br)ccc2O)C(C)(C)C1=O (stereo not drawn)		inactive: -5.14%
O=C(N/N=C/c1ccc(O)cc1O)/C(=C/c1ccccc1)CCO	inconclusive: 25.1 µM [inhibitor, single point]	
CCN(CC(=O)NCc1cccs1)C(=O)c1cccc(S(=O)(=O)N(C)C)c1	inconclusive: 0.631 µM [inhibitor, full curve, poor fit]	
O=C(N/N=C/c1ccc(N2CCOCC2)s1)c1ccccc1Br	inconclusive: 25.1 µM [activator, single point]	
Nc1nonc1N/N=C/c1c(O)ccc2ccccc12	inconclusive: 12.6 µM [inhibitor, partial curve]	
Cc1ccccc1C(OCCN(C)C)C1CCCCC1 (stereo not drawn)	inconclusive: 29.1 µM [inhibitor, single point]	
CCn1ccc(C(=O)Nc2ccccc2SC)n1	inconclusive: 12.6 µM [activator, partial curve, poor fit]	
Oc1c(C=Nc2ccccc2Cl)[nH]c2ccccc12	inconclusive: 1.41 µM [activator, partial curve, poor fit]	
COc1ccc(Nc2nnc(-c3ccc(C(N)=O)cc3)c3ccccc23)cc1		inactive: -6.47%
Cc1cc(C)c2nc3c(c(C(=O)O)c2c1)CCC3	inconclusive: 11.2 µM [activator, single point]	
COc1ccc(-c2[nH]ncc2N=Nc2cc(C)cc(C)c2)cc1	inconclusive: 15.8 µM [inhibitor, partial curve, poor fit]	
CN(Cc1c(O)ccc2c1oc(=O)c1ccccc12)C1CCCCC1	inconclusive: 29.1 µM [inhibitor, single point]	
Cc1nc(-c2ccc(S(=O)(=O)N3CCCN(CCc4ccccc4)CC3)s2)cs1	inconclusive: 0.562 µM [activator, full curve, poor fit]	
Cc1ccccc1Nc1ncnc2[nH]ncc12		inactive: 12.1%
CN(CCN1CCOCC1)C(=O)c1cc(COc2ccc(F)c(F)c2)on1	inconclusive: 31.6 µM [activator, single point]	
COc1cccc(CNc2nc3c(-c4ccccc4)nnn3c3ccccc23)c1	inconclusive: 4.47 µM [activator, full curve]	
COc1ccc(CCNC(=O)Cn2c(=O)n(-c3cc(OC)c(OC)c(OC)c3)c(=O)c3ccccc32)cc1OC	inconclusive: 3.55 µM [activator, partial curve, poor fit]	
CCOc1ccccc1C(=O)N[C@H](C(=O)OCc1csc(CC(=O)Nc2ccc(C)cc2)n1)C(C)C	inconclusive: 17.8 µM [inhibitor, partial curve, poor fit]	
Cc1cc(Cl)ccc1OCC(=O)Nc1nc(-c2cccs2)cs1		inactive: -11.1%

Compound	Potency	activity change, negative = inhibition
N#CC(C#N)=C(Nc1ccc(F)cc1)SCc1cccc(F)c1	active: 7.08 µM	
CCC(C)(C)NC(=O)C(c1ccccc1Cl)N(C(=O)CCC(=O)Nc1cc(C)on1)C1CC1 (stereo not drawn)	inconclusive: 31.6 µM [inhibitor, partial curve, poor fit]	
O=C(CSc1ncccc1-c1nc2ccccc2[nH]1)N1CCc2ccccc21	inconclusive: 0.231 µM [activator, single point]	
COc1cc(/C=C2\CCC/C(=C\c3ccc(O)c(OC)c3)C2=O)ccc1O	inconclusive: 17.8 µM [inhibitor, single point]	
CCN(C(=O)CN1C(=O)NC2(CCc3ccccc32)C1=O)C1CCCCC1 (stereo not drawn)		inactive: 10.9%
Cc1ccccc1NC(=O)c1csc2c1CCCC2	inconclusive: 5.8 µM [activator, full curve, poor fit]	
Cn1ccnc1SCC(=O)Nc1ccc(Cl)cn1	inconclusive: 11.2 µM [activator, partial curve, poor fit]	
CCC(CC)NC(=O)c1cc([N+](=O)[O-])ccc1N1CCOCC1	inconclusive: 20 µM [activator, single point]	
Cc1cccc(NC(=O)c2sc3nc(-c4ccc(F)cc4)cn3c2C)n1	inconclusive: 32.6 µM [inhibitor, single point]	
CN(C1CCCCC1)S(=O)(=O)c1cc2c3c(c1)CCN3C(=O)CC2		inactive: 11.6% [at 46.1 µM]
COc1ccccc1C(=O)Nc1ccnn1C1CCN(C(=O)c2ccoc2C)CC1		inactive: -3.91% [at 46.1 µM]
COc1ccc(C(CNC(=O)c2cc3c(s2)CCCC3)N2CCOCC2)cc1 (stereo not drawn)	inconclusive: 0.631 µM [inhibitor, partial curve, poor fit]	
O=C(CCl)N1CCCC1c1ccc2c(c1)OCCO2 (stereo not drawn)	inconclusive: 35.5 µM [inhibitor, single point]	
COC(c1ccccc1Br)C(C)/C=C/CCO (stereo not drawn)	inconclusive: 5.31 µM [inhibitor, single point]	
CN(Cc1nccn1C)C(=O)C1CCC(=O)N(CCc2ccc(Cl)cc2)C1 (stereo not drawn)		inactive: 2.92%
Cc1ccccc1OCC(=O)N/N=C1\CCOc2c(C)cccc21	inconclusive: 4.11 µM [activator, partial curve, poor fit]	
CC(=O)CSc1ncnc2c1oc1ccccc12		inactive: 17.4%
O=C(OCc1nc2ccccc2[n+]([O-])c1C(=O)c1ccccc1)c1ccco1	inconclusive: 3.55 µM [inhibitor, full curve]	
Cn1cc([N+](=O)[O-])c(C(=O)Nc2ccn(C34CC5CC(CC(C5)C3)C4)n2)n1	inconclusive: 17.8 µM [activator, partial curve, poor fit]	
Cc1ccc(/C=N/NC(=O)c2nnn(-c3nonc3N)c2CSc2ccccc2)o1	inconclusive: 31.6 µM [activator, single point]	
CCOC(=O)c1ccc(N2C(=O)CC(Nc3ccc(O)cc3)C2=O)cc1 (stereo not drawn)	inconclusive: 28.2 µM [inhibitor, single point]	
COc1cccc(OC)c1C(=O)N1CCN(Cc2ccncc2)CC1		inactive: -17% [at 46.1 µM]
Cc1cc(Cl)ccc1Oc1nccc(N(C)C)c1C#N	inconclusive: 14.6 µM [inhibitor, partial curve, poor fit]	

Part of the list above, set out differently:
Compound,Potency,"activity change, negative = inhibition"
COc1ccc(-c2[nH]ncc2N=Nc2cc(C)cc(C)c2)cc1,"inconclusive: 15.8 µM [inhibitor, partial curve, poor fit]",
CN(Cc1c(O)ccc2c1oc(=O)c1ccccc12)C1CCCCC1,"inconclusive: 29.1 µM [inhibitor, single point]",
Cc1nc(-c2ccc(S(=O)(=O)N3CCCN(CCc4ccccc4)CC3)s2)cs1,"inconclusive: 0.562 µM [activator, full curve, poor fit]",
Cc1ccccc1Nc1ncnc2[nH]ncc12,,inactive: 12.1%
CN(CCN1CCOCC1)C(=O)c1cc(COc2ccc(F)c(F)c2)on1,"inconclusive: 31.6 µM [activator, single point]",
COc1cccc(CNc2nc3c(-c4ccccc4)nnn3c3ccccc23)c1,"inconclusive: 4.47 µM [activator, full curve]",
COc1ccc(CCNC(=O)Cn2c(=O)n(-c3cc(OC)c(OC)c(OC)c3)c(=O)c3ccccc32)cc1OC,"inconclusive: 3.55 µM [activator, partial curve, poor fit]",
CCOc1ccccc1C(=O)N[C@H](C(=O)OCc1csc(CC(=O)Nc2ccc(C)cc2)n1)C(C)C,"inconclusive: 17.8 µM [inhibitor, partial curve, poor fit]",
Cc1cc(Cl)ccc1OCC(=O)Nc1nc(-c2cccs2)cs1,,inactive: -11.1%
N#CC(C#N)=C(Nc1ccc(F)cc1)SCc1cccc(F)c1,active: 7.08 µM,
CCC(C)(C)NC(=O)C(c1ccccc1Cl)N(C(=O)CCC(=O)Nc1cc(C)on1)C1CC1 (stereo not drawn),"inconclusive: 31.6 µM [inhibitor, partial curve, poor fit]",
O=C(CSc1ncccc1-c1nc2ccccc2[nH]1)N1CCc2ccccc21,"inconclusive: 0.231 µM [activator, single point]",
COc1cc(/C=C2\CCC/C(=C\c3ccc(O)c(OC)c3)C2=O)ccc1O,"inconclusive: 17.8 µM [inhibitor, single point]",
CCN(C(=O)CN1C(=O)NC2(CCc3ccccc32)C1=O)C1CCCCC1 (stereo not drawn),,inactive: 10.9%

(more compounds)

Compound	Potency	activity change, negative = inhibition
CCN(c1ccccc1)S(=O)(=O)c1cccc(C(=O)NCC(c2ccco2)N2CCCC2)c1 (stereo not drawn)	inconclusive: 7.94 µM [inhibitor, partial curve, poor fit]	
CCCCNC(=S)Nc1cccc2cnccc12	inconclusive: 3.16 µM [inhibitor, partial curve, poor fit]	
Cc1ccc2c(c1)C(c1ccccc1)=NCC(=O)N2	inconclusive: 5.62 µM [inhibitor, full curve, poor fit]	
COc1cc2oc(=O)c(CC(=O)N3CCCCC3)c(C)c2cc1OC		inactive: 12.2% [at 46.1 µM]
CCOc1ccc(-c2nc(N)ncc2Oc2ccccc2Br)c(O)c1	inconclusive: 10 µM [inhibitor, partial curve, poor fit]	
COCC(=O)Nc1ccc(N2CCN(c3ccccc3)CC2)c(F)c1	inconclusive: 7.94 µM [activator, partial curve, poor fit]	
c1ccc(-c2csc(N3CCCCCC3)n2)cc1	inconclusive: 35.5 µM [activator, single point]	
CN(CCOC(=O)c1ccc2c(c1)OCCO2)C(C)(C)C		inactive: -11.9%
CC(CN1CCN(C)CC1)OC(=O)c1ccccc1 (stereo not drawn)		inactive: 4.67%
Cc1ccc(Cl)c(NC(=O)Nc2csc3c2CCCC3)c1		inactive: 10.1% [at 46.1 µM]
CC(C)OC(=O)C(=O)NNc1ccccc1	inconclusive: 1.41 µM [inhibitor, full curve, poor fit]	
O=C(NC(=S)Nc1ccc(Cc2ccncc2)cc1)c1ccccc1Cl		inconclusive: 14% [activator]
CC(=O)Nc1ccc2nc(C)n(Cc3ccc(Cl)cc3)c(=O)c2c1		inactive: 10.1%
COCCN(CC(=O)Nc1cccc(C)c1C)C(=O)c1cc2ccccc2cc1OC	inconclusive: 0.355 µM [activator, partial curve, poor fit]	
CCOC(=O)CSC1=C(C#N)C(c2sccc2C)CC(=O)N1 (stereo not drawn)	inconclusive: 2.31 µM [inhibitor, partial curve, poor fit]	
CCOc1ccc(NC(=O)CSc2nnc(Cc3csc(C)n3)o2)cc1	inconclusive: 6.31 µM [inhibitor, single point]	
COc1ccccc1N1C(=O)NC(=O)/C(=C\c2cnn(-c3ccccc3)c2)C1=O	inconclusive: 14.1 µM [inhibitor, single point]	
CCOC(=O)c1cc(-c2ccc3c(c2)OCCO3)n[nH]1	active: 5.62 µM	
CCn1c(=O)n(CC)c2cc(S(=O)(=O)N3CCC(c4ccccc4)CC3)ccc21		inactive: -6.2%
Cc1cc(C)c(NC(=O)CSc2nc(COc3ccccc3)nc3ccccc23)c(C)c1	inconclusive: 29.1 µM [inhibitor, single point]	
COc1ccc(-c2cc(C(=O)Nc3ccn(Cc4ccc(C)cc4)n3)no2)cc1OC	inconclusive: 25.1 µM [inhibitor, single point]	
Cc1ccc(S(=O)(=O)c2nc(-c3ccccc3Cl)oc2N2CCCCCC2)cc1	inconclusive: 1.26 µM [inhibitor, full curve, poor fit]	

Reference: PubChem BioAssay AID540276 (National Center for Advancing Translational Sciences (NCATS), 2011)
